PubChem BioAssay AID686943 – Drosophila RNAi Screening Center | 2013
Assay: 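Knockdowns that increase or decrease active ERK after insulin receptor stimulation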 (primary screen). System: Drosophila S2R+ haemocyte-like cells expressing YFP-tagged ERK (Rolled). Reagent: long dsRNA against Drosophila genes. Conditions: insulin stimulation versus unstimulated cells; dose and duration not given. Measurement: 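Antibody staining for doubly phosphorylated ERK divided by ERK-YFP signal, as plate z-scores, in insulin-treated and untreated cells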. Reading the numbers: replicate 1, z-score of dpERK with insulin and replicate 2, z-score of dpERK with insulin: higher = more active ERK per ERK-YFP after insulin; replicate 1, z-score of dpERK under basal conditions: higher = more basal active ERK per ERK-YFP; replicate 1, z-score of ERK-YFP with insulin: higher = more YFP-tagged ERK signal.
The screen tested about 23,000 reagents; this is an unselected part of those that have a named target and a result. 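Extra replicates exist only for a retested subset of genes; insulin dose and duration not given; both raised and lowered dpERK matter.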 A plus sign joins genes that one reagent is predicted to hit. Reagent sequences are not shown. Not given: the amount of reagent, the time to read-out.

| Gene | amplicon | replicate 1, z-score of dpERK with insulin | replicate 2, z-score of dpERK with insulin | replicate 1, z-score of dpERK under basal conditions | replicate 1, z-score of ERK-YFP with insulin |
| --- | --- | --- | --- | --- | --- |
| CG6765 | DRSC10706 | 0.38 | 0.66 | -0.3 | 0.37 |
| eya | DRSC03510 | -0.83 | 0.81 | 0.6 | -0.21 |
| CG10931 | DRSC06015 | -1.14 | -0.09 | -0.94 | 0.13 |
| CG32054 | DRSC10684 | -0.44 | -0.02 | -1.39 | 0.19 |
| CG17107 | DRSC02575 | 0.51 | 1.29 | 1.21 | 0.69 |
| CG17107 | DRSC22627 | 0.97 | 0.46 | -0.05 | -1.4 |
| Blos3 | DRSC09573 | 2.14 | 0.99 | 0.86 | -3.2 |
| cpx | DRSC11999 | 0.8 | 0.55 | -0.05 | -0.26 |
| CG43077 | DRSC19168 | -1.35 | -0.88 | -0.21 | 0.74 |
| CG15201 | DRSC19648 | 1.9 | 0.06 | 1.49 | -0.19 |
| Pif1A | DRSC12708 | 0.57 | 0.09 | 0.48 | -0.49 |
| Pif1A | DRSC14383 | 0.74 | -0.09 | -0.33 | 1.13 |
| CG31974 | DRSC00522 | 0.22 | -0.72 | 0.34 | 0.19 |
| CG31924 | DRSC00689 | 1.19 | 1.03 | 0.09 | -0.61 |
| AP-2mu | DRSC14090 | 0.91 | 2.12 | -0.44 | 0.34 |
| CG8229 + CG33199 | DRSC05134 | -1.47 | -0.54 | -1.08 | 1.47 |
| lncRNA:CR34046 | DRSC14075 | 0.76 | 0.33 | -1.09 | -0.86 |
| beat-Va | DRSC14192 | -0.49 | -1.22 | 0.11 | 0.2 |
| Obp50e | DRSC06434 | 0.25 | 0.77 | 0.68 | 0.25 |
| CG6454 | DRSC16044 | 0.39 | -0.24 | -0.4 | -0.07 |
| Ccp84Ab | DRSC12587 | -0.47 | -0.64 | -0.51 | -0.59 |
| Pp1-Y1 | DRSC20896 | -1.7 | -2.16 | 1.45 | 3.02 |
| Ir7g | DRSC18008 | -0.27 | 0 | 0.11 | 0.14 |
| CG4250 | DRSC04455 | -0.24 | 0.29 | 1.02 | 0.43 |
| CG9986 | DRSC16586 | 0.12 | -0.25 | -0.33 | 1.16 |
| CG13001 | DRSC19520 | 0.39 | 0.36 | -0.25 | 0.13 |
| CG13001 | DRSC22443 | -0.04 | -0.1 | 0.49 | -0.32 |
| CG13026 | DRSC09906 | -0.47 | 0.09 | -0.59 | 0.69 |
| lok | DRSC03567 | -1.14 | -0.65 | 1.21 | 0.49 |
| wdn | DRSC17095 | 0.15 | 1.62 | -2.17 | -0.93 |
| CG32379 | DRSC10318 | -0.17 | 0.36 | – | 0.02 |
| CROT | DRSC14518 | -1 | 0.22 | -0.04 | -0.09 |
| CROT | DRSC14519 | -0.78 | 0 | -0.84 | 0.45 |
| Miox | DRSC10747 | -0.29 | -0.67 | 0.47 | 0.81 |
| CG32751 | DRSC21770 | 0.39 | 0.53 | -0.64 | -1.68 |
| Pms2 | DRSC07511 | -0.66 | -0.26 | 0.14 | -0.18 |
| COX7B | DRSC10895 | -1.23 | -2.47 | -1.22 | 2.09 |
| Su(dx) | DRSC00791 | 0.65 | 0.2 | -0.18 | 0.89 |
| CG4650 | DRSC02767 | 1.22 | -0.26 | 0.39 | 0.03 |
| cry | DRSC16928 | 0.53 | 0.04 | 0.64 | -0.18 |
| Ance-4 | DRSC07104 | 0.15 | -0.47 | -0.22 | -0.59 |
| Aplip1 | DRSC07947 | 0.39 | 0.5 | 1.78 | 0.18 |
| Aplip1 | DRSC08697 | 0.02 | 0.25 | 0.47 | 0.51 |
| Aplip1 | DRSC21587 | 0.17 | 0.07 | -0.54 | -0.15 |
| ATPsynE | DRSC15476 | 0.38 | 0.8 | -0.17 | -0.09 |
| CG13056 | DRSC09937 | 0.93 | -0.52 | 1.8 | -0.19 |
| Ts | DRSC00795 | -0.38 | 0.35 | 0.89 | -0.55 |
| Ts | DRSC22168 | -1.12 | -1.41 | -0.33 | -0.23 |
| SLO2 | DRSC06212 | -2.92 | -3.35 | -1.71 | -5.43 |
| SLO2 | DRSC06214 | 0.53 | -0.22 | -0.76 | -0.19 |
| SLO2 | DRSC06216 | -0.74 | -0.73 | -0.38 | 1.22 |
| SLO2 | DRSC06218 | -0.59 | 0.57 | -0.21 | 0.73 |
| SLO2 | DRSC06219 | -0.56 | -3.97 | -1.79 | -2.39 |
| DNAlig4 | DRSC19436 | -1.17 | -0.49 | 0.36 | 0.9 |
| Zir | DRSC00307 | -0.34 | 1.11 | -0.61 | -0.91 |
| CG14715 | DRSC14938 | -0.68 | -0.49 | -0.35 | 1.18 |
| Hsp83 | DRSC08664 | 1.68 | 1.88 | 0.74 | -1.2 |
| CG3770 | DRSC04416 | -0.09 | -0.6 | 0.78 | -0.77 |
| Cpr73D | DRSC11084 | -0.25 | -0.14 | -0.06 | 0.98 |
| CG33259 | DRSC10854 | 0.34 | -0.97 | 0.63 | 0.95 |
| CG14230 | DRSC19586 | 1.77 | 1.74 | 3.26 | -3.16 |
| CG7606 | DRSC13246 | -0.77 | 0.26 | -0.28 | -0.11 |
| CG7606 | DRSC16268 | 2.13 | 0.64 | 0.14 | -0.74 |
| Dic61B | DRSC08588 | -0.13 | 0.27 | -0.46 | -0.57 |
| gkt + CR31953 | DRSC00709 | 0.22 | -0.31 | 0.02 | 0.52 |
| CG7484 | DRSC10853 | -0.05 | -0.4 | -1.13 | -0.19 |
| E5 | DRSC13000 | -2.77 | -2.54 | -0.99 | -1.76 |
| E5 | DRSC16585 | -1.38 | -3.07 | -0.28 | -1.76 |
| CG18171 | DRSC08524 | -0.87 | -0.2 | 1.08 | 0.05 |
| CG43397 + CG12902 | DRSC06217 | -0.13 | -0.16 | -0.64 | 0.83 |
| CG13733 | DRSC10061 | -0.16 | -0.04 | 0.88 | 0.31 |
| h-cup + Rbp | DRSC14990 | 0.26 | 0.12 | -0.23 | 0.45 |
| CG4907 | DRSC15673 | 0.8 | -0.26 | -0.14 | 0.51 |

Laid out differently: entries from further up.
Gene | amplicon | replicate 1, z-score of dpERK with insulin | replicate 2, z-score of dpERK with insulin | replicate 1, z-score of dpERK under basal conditions | replicate 1, z-score of ERK-YFP with insulin
lncRNA:CR34046 | DRSC14075 | 0.76 | 0.33 | -1.09 | -0.86
beat-Va | DRSC14192 | -0.49 | -1.22 | 0.11 | 0.2
Obp50e | DRSC06434 | 0.25 | 0.77 | 0.68 | 0.25
CG6454 | DRSC16044 | 0.39 | -0.24 | -0.4 | -0.07
Ccp84Ab | DRSC12587 | -0.47 | -0.64 | -0.51 | -0.59
Pp1-Y1 | DRSC20896 | -1.7 | -2.16 | 1.45 | 3.02
